Assay results published in PMC11748629, “Unidirectional MCM translocation away from ORC drives origin licensing” (Nature Communications, 2025).
No constants are given. Whether binding was seen depends on the method and setting. Tags and fused reporters may be left off the sequences shown. Each block holds one binder with its values, some of them ahead of it.

Chains of the proteins cited; added tags and fusions are not shown. Lines headed by an entry give the natural chain unless they say otherwise; changes in a name come on top.
UniProt P32833: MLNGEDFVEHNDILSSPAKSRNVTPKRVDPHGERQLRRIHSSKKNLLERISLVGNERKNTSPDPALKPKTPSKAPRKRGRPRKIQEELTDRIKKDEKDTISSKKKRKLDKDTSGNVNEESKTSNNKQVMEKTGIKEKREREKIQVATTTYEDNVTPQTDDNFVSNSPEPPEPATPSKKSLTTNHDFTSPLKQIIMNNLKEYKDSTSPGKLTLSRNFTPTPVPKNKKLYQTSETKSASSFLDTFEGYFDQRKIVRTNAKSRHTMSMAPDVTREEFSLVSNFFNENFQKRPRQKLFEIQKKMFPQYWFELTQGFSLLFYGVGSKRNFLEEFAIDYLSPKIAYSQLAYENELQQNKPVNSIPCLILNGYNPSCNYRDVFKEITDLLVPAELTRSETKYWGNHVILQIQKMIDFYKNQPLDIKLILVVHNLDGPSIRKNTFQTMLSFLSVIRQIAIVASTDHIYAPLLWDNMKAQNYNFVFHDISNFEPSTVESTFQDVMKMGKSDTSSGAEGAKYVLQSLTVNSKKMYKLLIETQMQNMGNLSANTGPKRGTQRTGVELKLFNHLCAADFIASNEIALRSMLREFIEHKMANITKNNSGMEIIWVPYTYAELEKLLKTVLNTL
UniProt P54790: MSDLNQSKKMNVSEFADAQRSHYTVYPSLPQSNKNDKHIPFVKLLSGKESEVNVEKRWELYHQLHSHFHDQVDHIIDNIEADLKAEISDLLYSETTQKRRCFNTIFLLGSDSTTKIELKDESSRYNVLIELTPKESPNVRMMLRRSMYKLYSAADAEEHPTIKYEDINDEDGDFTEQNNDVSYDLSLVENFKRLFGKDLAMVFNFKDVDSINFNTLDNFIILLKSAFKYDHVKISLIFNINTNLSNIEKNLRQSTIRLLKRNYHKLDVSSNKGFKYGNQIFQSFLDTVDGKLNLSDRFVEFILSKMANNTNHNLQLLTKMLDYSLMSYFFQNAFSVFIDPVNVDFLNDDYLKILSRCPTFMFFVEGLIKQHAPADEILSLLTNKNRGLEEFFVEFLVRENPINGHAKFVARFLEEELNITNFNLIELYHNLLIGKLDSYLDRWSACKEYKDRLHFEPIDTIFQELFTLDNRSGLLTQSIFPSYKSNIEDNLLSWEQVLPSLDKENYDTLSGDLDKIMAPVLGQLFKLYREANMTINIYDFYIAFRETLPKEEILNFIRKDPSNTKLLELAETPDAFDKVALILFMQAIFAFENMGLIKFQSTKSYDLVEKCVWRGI
UniProt P54791: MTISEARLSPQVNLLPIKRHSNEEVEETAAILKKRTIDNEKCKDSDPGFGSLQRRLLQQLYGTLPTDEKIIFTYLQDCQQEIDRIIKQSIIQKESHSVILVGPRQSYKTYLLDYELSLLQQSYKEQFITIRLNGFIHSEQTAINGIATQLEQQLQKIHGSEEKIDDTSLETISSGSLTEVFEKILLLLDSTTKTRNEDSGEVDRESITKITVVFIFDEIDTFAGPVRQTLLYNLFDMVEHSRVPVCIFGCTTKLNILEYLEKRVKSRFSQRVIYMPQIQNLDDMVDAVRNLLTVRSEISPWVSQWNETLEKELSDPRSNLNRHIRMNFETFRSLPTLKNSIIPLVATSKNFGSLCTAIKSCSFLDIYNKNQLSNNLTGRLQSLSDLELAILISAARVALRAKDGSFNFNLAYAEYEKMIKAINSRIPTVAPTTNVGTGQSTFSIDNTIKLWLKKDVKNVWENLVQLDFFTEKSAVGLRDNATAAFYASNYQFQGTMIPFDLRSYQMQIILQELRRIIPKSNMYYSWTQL
UniProt P50874: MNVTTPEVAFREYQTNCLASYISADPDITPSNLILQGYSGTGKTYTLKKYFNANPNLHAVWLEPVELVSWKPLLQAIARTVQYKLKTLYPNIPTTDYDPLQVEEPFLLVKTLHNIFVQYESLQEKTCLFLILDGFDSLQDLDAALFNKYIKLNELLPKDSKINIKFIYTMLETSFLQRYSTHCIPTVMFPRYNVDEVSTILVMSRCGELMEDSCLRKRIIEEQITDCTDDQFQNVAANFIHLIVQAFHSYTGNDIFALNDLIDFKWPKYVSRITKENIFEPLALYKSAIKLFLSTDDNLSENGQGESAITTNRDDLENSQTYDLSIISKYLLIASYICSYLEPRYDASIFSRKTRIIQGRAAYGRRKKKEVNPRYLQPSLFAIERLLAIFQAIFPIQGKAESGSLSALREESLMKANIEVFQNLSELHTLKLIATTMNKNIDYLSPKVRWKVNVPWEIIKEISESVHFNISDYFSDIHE
UniProt P38826: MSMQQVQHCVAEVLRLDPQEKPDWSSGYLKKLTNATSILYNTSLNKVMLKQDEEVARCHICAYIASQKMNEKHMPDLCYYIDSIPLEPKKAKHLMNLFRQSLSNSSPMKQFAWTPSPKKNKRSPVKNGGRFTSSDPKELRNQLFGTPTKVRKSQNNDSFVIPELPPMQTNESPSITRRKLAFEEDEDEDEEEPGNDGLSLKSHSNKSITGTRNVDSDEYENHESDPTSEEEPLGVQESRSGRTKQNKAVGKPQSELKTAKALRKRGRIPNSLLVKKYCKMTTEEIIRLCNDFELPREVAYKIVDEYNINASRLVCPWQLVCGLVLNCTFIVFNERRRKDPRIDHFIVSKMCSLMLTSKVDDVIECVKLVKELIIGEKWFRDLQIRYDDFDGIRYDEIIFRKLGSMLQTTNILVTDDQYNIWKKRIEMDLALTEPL

How the values were obtained:
[1] = molecular target: Origin Recognition Complex (ORC) (Saccharomyces cerevisiae) (UniProt P54784+P32833+P54790+P54791+P50874+P38826); assay: condition: only in the complex stalled with Mcm5 R549A and ATP (OC1M^Mcm5RA); 90 nM Cdc6 in the reaction; cryo-EM structure; OC1M^Mcm5RA: 30 nM MH-ARS1-MH DNA, 60 nM ORC, 90 nM Cdc6, 60 nM MCM-Cdt1 (Mcm5 R549A), 2 mM ATP; same buffer; 30 °C, 30 min; conformer 1 at 3.7 Å, conformer 2 at 3.4 Å (Orc1 ATPase domain seen only in conformer 1); both purified
[2] = molecular target: T1, Orc1 (Saccharomyces cerevisiae) (UniProt P54784); assay: condition: only in the complex stalled with Mcm5 R549A and ATP (OC1M^Mcm5RA); cryo-EM structure; OC1M^Mcm5RA: 30 nM MH-ARS1-MH DNA, 60 nM ORC, 90 nM Cdc6, 60 nM MCM-Cdt1 (Mcm5 R549A), 2 mM ATP; same buffer; 30 °C, 30 min; conformer 1 at 3.7 Å, conformer 2 at 3.4 Å (Orc1 ATPase domain seen only in conformer 1); both purified
T1 sequence: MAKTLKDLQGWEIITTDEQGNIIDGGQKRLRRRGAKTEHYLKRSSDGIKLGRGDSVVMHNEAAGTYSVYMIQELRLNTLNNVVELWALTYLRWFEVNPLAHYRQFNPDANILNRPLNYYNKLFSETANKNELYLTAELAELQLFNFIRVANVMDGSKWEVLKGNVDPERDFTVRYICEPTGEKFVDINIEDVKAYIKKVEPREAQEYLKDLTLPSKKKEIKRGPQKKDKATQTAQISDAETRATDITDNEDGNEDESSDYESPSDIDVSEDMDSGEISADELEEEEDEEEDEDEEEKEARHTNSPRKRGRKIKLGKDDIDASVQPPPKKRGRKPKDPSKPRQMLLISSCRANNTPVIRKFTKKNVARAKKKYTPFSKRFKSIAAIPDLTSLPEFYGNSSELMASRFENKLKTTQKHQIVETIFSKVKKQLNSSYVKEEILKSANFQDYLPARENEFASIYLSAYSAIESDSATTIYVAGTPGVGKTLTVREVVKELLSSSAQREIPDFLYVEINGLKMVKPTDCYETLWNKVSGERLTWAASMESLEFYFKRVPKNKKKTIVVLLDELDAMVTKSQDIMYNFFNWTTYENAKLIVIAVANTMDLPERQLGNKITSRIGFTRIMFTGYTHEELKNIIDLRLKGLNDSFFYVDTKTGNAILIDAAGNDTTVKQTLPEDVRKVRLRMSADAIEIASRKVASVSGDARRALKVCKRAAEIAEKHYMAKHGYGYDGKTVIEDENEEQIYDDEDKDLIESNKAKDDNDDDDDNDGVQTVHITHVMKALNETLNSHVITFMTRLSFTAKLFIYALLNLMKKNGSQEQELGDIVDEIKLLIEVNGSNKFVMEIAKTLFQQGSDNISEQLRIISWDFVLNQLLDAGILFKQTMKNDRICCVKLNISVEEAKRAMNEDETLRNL

- binding [1]: no binding
B1: Saccharomyces cerevisiae Cdc6 (protein, UniProt P09119 1-513)
chain: MSAIPITPTKRIRRNLFDDAPATPPRPLKRKKLQFTDVTPESSPEKLQFGSQSIFLRTKALLQKSSELVNLNSSDGALPARTAEYEQVMNFLAKAISEHRSDSLYITGPPGTGKTAQLDMIIRQKFQSLPLSLSTPRSKDVLRHTNPNLQNLSWFELPDGRLESVAVTSINCISLGEPSSIFQKIFDSFQDLNGPTLQIKNMQHLQKFLEPYHKKTTFVVVLDEMDRLLHANTSETQSVRTILELFLLAKLPTVSFVLIGMANSLDMKDRFLSRLNLDRGLLPQTIVFQPYTAEQMYEIVIQKMSSLPTIIFQPMAIKFAAKKCAGNTGDLRKLFDVLRGSIEIYELEKRFLLSPTRGSLNSAQVPLTPTTSPVKKSYPEPQGKIGLNYIAKVFSKFVNNNSTRTRIAKLNIQQKLILCTIIQSLKLNSDATIDESFDHYIKAITKTDTLAPLQRNEFLEICTILETCGLVSIKKTKCKGKTKRFVDKIDVDLDMREFYDEMTKISILKPFLH

- binding [2]: no binding
B2: Mcm7 (protein, UniProt P38132 1-845)
chain: MSAALPSIQLPVDYNNLFNEITDFLVTFKQDTLSSDATRNENEDENLDAENIEQHLLEKGPKYMAMLQKVANRELNSVIIDLDDILQYQNEKFLQGTQADDLVSAIQQNANHFTELFCRAIDNNMPLPTKEIDYKDDVLDVILNQRRLRNERMLSDRTNEIRSENLMDTTMDPPSSMNDALREVVEDETELFPPNLTRRYFLYFKPLSQNCARRYRKKAISSKPLSVRQIKGDFLGQLITVRGIITRVSDVKPAVEVIAYTCDQCGYEVFQEVNSRTFTPLSECTSEECSQNQTKGQLFMSTRASKFSAFQECKIQELSQQVPVGHIPRSLNIHVNGTLVRSLSPGDIVDVTGIFLPAPYTGFKALKAGLLTETYLEAQFVRQHKKKFASFSLTSDVEERVMELITSGDVYNRLAKSIAPEIYGNLDVKKALLLLLVGGVDKRVGDGMKIRGDINVCLMGDPGVAKSQLLKAICKISPRGVYTTGKGSSGVGLTAAVMKDPVTDEMILEGGALVLADNGICCIDEFDKMDESDRTAIHEVMEQQTISISKAGINTTLNARTSILAAANPLYGRYNPRLSPLDNINLPAALLSRFDILFLMLDIPSRDDDEKLAEHVTYVHMHNKQPDLDFTPVEPSKMREYIAYAKTKRPVMSEAVNDYVVQAYIRLRQDSKREMDSKFSFGQATPRTLLGIIRLSQALAKLRLADMVDIDDVEEALRLVRVSKESLYQETNKSKEDESPTTKIFTIIKKMLQETGKNTLSYENIVKTVRLRGFTMLQLSNCIQEYSYLNVWHLINEGNTLKFVDDGTMDTDQEDSLVSTPKLAPQTTASANVSAQDSDIDLQDA
